Source: article PMC12395676
No constants are given. Whether binding was seen depends on the method and setting. Binding seen in cells or lysates may run through a third protein. Some binding calls cover weakened binding; strength is not graded here.

Chains of the proteins cited; added tags and fusions are not shown.
UniProt Q15796: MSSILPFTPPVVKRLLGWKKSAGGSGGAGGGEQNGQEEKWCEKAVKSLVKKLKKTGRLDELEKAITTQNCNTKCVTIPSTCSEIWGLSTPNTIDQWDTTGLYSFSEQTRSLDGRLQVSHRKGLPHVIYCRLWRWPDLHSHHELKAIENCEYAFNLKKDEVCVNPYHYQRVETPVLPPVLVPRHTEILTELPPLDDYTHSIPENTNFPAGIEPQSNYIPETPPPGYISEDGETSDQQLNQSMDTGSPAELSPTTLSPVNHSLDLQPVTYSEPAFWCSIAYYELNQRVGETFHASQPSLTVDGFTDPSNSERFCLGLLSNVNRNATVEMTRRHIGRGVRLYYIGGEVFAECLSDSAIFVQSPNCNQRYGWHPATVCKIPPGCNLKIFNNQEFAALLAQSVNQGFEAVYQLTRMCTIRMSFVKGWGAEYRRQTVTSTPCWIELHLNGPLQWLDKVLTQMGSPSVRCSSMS
UniProt P31271: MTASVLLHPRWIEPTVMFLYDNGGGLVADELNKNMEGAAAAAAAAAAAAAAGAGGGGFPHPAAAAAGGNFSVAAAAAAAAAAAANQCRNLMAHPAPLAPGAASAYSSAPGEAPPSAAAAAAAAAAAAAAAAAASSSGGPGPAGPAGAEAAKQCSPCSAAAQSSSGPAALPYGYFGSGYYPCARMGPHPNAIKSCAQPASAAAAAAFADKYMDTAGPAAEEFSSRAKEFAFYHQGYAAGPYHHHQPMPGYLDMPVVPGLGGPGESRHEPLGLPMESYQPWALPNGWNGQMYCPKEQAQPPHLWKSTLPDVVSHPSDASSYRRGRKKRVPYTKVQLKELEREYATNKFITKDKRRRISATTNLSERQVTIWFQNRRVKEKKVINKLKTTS

Target: smad2 (UniProt Q15796)
Experiment: co-IP; CO-IP kit (Abison Biotechnology); proteins mixed with MG-132 (10 µM), incubated with primary antibodies, then protein A/G plus-agarose beads; complexes examined by western blot; sample and precipitating antibody not stated

Substance: Homeobox A13 (HOXA13) (from UniProt P31271 1-388)
- binding: binds
